# Data from the supplement of paper PMC6411743.
# By UniProt entry, the sequences of proteins in these tests, tags left out. Where a name states a change or a piece, a line headed by the entry shows the natural chain unless it says otherwise.
# UniProt Q9NUQ8: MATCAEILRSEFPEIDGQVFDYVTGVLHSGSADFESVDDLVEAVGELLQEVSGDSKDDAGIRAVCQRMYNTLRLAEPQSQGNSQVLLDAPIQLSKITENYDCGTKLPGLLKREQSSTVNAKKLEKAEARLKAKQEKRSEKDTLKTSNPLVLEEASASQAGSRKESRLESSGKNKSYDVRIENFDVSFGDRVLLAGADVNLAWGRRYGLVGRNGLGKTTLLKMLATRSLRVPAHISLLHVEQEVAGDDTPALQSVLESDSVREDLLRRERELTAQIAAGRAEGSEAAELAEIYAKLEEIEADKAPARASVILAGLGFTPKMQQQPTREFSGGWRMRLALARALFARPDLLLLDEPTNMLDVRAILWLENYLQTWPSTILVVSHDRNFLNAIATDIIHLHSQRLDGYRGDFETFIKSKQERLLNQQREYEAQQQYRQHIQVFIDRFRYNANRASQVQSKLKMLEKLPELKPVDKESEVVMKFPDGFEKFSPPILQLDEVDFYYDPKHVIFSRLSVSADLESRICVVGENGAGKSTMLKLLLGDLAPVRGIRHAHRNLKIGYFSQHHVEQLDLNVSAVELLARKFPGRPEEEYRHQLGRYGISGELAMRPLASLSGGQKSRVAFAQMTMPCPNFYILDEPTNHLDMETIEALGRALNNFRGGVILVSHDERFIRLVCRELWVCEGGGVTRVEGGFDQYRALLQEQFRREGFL
# UniProt Q9NZC9: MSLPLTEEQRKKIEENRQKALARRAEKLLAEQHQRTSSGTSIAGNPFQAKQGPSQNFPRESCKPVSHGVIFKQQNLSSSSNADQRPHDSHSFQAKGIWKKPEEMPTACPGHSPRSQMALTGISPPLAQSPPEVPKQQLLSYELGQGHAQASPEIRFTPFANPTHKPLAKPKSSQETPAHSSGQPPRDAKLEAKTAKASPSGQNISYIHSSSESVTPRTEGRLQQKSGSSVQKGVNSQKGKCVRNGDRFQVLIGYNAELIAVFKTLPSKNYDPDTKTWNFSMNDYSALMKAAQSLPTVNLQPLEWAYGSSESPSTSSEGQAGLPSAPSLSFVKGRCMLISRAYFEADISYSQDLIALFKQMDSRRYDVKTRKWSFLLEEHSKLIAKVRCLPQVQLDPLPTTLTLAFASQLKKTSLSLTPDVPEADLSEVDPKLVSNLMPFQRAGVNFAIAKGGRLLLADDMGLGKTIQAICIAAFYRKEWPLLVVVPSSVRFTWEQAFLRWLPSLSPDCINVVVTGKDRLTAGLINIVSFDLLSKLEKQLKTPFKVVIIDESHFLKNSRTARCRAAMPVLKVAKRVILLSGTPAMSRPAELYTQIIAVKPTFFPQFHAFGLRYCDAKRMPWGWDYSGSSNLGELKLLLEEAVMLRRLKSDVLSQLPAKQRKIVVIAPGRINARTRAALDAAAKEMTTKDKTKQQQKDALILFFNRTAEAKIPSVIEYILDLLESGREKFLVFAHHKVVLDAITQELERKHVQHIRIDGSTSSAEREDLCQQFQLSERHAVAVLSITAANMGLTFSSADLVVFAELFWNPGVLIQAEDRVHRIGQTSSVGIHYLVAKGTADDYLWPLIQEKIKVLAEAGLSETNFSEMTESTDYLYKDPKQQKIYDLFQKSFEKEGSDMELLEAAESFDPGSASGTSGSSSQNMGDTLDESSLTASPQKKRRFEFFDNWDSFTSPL
# UniProt Q9NRL2: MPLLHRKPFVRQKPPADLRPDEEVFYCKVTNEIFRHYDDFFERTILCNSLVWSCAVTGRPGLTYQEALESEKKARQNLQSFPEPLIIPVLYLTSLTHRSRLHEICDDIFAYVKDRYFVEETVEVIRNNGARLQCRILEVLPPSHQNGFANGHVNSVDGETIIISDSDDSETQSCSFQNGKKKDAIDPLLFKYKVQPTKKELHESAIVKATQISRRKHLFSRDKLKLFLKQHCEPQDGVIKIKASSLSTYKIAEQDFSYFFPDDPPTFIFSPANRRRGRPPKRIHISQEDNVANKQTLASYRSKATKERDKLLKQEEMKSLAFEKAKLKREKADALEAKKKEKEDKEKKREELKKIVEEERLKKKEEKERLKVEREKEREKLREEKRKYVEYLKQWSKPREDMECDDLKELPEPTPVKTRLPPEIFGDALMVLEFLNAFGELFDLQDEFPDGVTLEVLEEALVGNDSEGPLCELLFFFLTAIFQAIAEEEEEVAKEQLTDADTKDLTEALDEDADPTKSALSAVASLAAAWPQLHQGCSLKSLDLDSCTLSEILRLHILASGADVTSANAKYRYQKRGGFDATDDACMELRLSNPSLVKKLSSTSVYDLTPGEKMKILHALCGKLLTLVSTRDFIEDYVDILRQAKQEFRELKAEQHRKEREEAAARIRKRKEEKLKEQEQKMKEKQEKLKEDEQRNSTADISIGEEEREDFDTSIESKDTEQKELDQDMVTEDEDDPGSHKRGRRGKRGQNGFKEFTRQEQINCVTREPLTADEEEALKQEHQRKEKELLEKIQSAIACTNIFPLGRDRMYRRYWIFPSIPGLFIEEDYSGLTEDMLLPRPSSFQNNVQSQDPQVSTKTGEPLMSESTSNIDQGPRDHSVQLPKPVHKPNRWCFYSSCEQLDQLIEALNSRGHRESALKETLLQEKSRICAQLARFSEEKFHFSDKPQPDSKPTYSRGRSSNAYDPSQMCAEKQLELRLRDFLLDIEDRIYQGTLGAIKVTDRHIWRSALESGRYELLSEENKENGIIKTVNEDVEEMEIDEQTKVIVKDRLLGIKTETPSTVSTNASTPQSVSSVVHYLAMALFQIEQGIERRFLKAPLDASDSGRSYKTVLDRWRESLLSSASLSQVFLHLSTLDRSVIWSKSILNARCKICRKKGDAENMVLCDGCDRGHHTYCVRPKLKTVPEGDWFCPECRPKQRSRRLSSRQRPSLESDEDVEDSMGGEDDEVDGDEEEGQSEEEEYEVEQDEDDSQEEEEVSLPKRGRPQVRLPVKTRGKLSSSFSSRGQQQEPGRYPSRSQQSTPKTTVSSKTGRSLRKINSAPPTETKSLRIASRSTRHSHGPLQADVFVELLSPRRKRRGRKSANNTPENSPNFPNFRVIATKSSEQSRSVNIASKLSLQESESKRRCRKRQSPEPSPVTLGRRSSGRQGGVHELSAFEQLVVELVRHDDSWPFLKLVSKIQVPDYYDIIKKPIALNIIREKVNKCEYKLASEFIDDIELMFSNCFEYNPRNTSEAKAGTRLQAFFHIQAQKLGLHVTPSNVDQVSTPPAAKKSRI
# UniProt Q9NX62: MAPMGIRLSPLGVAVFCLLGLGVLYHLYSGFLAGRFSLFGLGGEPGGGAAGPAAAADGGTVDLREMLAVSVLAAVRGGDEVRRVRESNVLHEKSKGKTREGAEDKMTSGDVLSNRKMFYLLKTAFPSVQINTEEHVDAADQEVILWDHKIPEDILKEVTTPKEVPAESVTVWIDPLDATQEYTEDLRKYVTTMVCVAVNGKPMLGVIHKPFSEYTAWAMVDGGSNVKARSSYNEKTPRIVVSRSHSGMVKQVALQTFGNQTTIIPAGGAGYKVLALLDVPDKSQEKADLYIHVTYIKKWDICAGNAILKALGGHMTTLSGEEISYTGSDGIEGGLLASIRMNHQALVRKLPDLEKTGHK
# UniProt Q9NX00: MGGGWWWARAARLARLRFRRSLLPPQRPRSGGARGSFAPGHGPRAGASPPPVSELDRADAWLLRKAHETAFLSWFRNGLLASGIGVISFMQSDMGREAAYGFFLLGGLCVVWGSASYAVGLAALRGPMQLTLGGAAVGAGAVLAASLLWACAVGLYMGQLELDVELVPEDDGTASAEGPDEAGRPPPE
# UniProt Q9P265: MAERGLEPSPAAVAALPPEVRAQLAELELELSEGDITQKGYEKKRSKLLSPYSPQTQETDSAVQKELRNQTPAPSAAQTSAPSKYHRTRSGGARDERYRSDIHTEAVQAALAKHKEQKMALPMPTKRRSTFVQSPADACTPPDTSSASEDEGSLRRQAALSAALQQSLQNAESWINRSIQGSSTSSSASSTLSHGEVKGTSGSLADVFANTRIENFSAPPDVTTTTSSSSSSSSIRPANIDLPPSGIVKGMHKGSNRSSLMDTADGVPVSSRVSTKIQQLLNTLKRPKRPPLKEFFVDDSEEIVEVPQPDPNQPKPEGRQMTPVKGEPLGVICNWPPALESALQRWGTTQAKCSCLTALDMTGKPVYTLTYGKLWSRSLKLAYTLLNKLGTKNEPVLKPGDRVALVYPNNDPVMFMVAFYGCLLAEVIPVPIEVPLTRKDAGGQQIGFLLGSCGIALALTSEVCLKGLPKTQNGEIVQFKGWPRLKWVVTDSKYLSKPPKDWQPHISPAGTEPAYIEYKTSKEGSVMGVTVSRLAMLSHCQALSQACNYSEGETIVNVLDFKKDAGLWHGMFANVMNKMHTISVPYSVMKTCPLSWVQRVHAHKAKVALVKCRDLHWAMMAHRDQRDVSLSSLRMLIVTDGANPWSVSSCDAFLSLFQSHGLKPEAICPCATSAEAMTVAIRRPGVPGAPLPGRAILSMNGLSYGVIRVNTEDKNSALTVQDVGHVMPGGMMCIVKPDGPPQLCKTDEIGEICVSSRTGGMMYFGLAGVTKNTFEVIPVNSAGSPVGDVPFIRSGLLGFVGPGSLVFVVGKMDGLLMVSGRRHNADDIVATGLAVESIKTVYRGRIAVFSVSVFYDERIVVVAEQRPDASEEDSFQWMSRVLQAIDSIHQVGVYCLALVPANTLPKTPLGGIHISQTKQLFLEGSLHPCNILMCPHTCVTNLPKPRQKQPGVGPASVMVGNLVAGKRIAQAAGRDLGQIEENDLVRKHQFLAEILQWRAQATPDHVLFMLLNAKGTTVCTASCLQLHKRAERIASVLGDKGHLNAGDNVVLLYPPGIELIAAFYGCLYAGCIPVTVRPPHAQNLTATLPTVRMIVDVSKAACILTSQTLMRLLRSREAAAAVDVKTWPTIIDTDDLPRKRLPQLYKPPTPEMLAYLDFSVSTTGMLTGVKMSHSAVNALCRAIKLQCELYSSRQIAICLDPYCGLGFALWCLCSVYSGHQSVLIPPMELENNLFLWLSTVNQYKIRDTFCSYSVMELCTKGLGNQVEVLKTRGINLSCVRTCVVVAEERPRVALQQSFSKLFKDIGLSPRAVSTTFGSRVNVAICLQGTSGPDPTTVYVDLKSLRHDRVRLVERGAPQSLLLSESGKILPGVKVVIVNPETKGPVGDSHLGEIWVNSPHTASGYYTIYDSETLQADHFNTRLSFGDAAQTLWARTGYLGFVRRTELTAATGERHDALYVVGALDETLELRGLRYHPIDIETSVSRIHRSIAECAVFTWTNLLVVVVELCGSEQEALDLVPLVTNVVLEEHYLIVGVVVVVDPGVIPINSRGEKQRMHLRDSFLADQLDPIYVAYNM
# UniProt Q9NYP9: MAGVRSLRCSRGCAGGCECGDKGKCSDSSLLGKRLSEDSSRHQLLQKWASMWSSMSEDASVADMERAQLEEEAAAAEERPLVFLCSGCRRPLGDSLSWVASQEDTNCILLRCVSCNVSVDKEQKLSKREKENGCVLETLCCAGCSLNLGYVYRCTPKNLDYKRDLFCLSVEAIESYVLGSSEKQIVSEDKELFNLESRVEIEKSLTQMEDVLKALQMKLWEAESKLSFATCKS
# UniProt Q9NSK0: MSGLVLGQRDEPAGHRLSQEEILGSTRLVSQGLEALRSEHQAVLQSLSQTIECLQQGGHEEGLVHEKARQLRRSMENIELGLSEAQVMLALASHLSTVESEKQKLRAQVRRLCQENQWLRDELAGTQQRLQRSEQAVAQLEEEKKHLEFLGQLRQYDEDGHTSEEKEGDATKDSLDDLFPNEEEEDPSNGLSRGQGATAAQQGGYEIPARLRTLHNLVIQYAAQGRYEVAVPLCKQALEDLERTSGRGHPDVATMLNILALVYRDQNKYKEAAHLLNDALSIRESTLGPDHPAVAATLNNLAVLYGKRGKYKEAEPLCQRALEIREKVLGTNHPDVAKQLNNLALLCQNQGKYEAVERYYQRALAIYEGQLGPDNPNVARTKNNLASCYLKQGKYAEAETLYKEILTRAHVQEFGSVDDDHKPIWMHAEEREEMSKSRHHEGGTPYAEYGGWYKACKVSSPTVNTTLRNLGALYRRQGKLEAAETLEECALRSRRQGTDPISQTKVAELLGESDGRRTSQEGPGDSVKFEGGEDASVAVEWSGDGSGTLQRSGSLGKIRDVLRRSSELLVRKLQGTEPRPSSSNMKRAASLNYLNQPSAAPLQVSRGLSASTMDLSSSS
# UniProt Q9NQS1: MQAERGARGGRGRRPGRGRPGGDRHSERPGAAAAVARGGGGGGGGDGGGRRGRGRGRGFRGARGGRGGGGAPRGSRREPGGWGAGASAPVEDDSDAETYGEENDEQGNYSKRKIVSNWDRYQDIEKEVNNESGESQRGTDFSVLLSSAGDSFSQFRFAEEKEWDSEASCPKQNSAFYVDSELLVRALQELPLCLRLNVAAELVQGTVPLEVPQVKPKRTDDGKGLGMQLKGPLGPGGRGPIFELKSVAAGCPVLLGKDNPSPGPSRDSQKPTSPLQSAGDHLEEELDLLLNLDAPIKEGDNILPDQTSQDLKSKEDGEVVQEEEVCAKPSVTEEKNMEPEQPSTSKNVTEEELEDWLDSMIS
# ± gives the standard deviation of the averaged measurements. This is a selection; strong and weak results do not stand in their true shares. Most entries show no effect beyond the scatter of the controls.
# Compound: Nc1ncnc2c1ncn2[C@@H]1O[C@H](COP(=O)(O)OP(=O)(O)NP(=O)(O)O)[C@@H](O)[C@H]1O [adenylyl imidodiphosphate]
# Experiment: NP40-soluble protein abundance relative to vehicle (solubility fold change) (ratio); higher = more soluble protein in presence of AMP-PNP
# In short: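 Eight concentrations, 0.1 to 10 mM, were tested on Jurkat crude lysate for 10 min at room temperature and then 3 min at 37 °C, in three independent experiments. The lysate was solubilised with 0.8% NP40 and benzonase, ultracentrifuged, and the supernatant TMT-labelled for LC-MS/MS. Each value is the fold change against the detergent-processed vehicle in its own replicate, from vsn-normalised intensities.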
Target,NP40-soluble protein abundance (concentration: 0.1mM),NP40-soluble protein abundance (concentration: 0.5mM)
ABCF3 (UniProt Q9NUQ8),1.04 ± 0.028,0.997 ± 0.014
SMARCAL1 (UniProt Q9NZC9),0.987 ± 0.021,1 ± 0.014
UniProt Q9NZB8 and related entries,1 ± 0.021,0.954 ± 0.064
UniProt Q9P0U4 and related entries,1.01 ± 0.033,0.977 ± 0.034
UniProt Q9NVH0 and related entries,1 ± 0.018,0.974 ± 0.042
BAZ1A (UniProt Q9NRL2),0.999 ± 0.029,1.04 ± 0.043
TBC1D22B (UniProt Q9NU19),1 ± 0.0064,1 ± 0.02
ARGLU1 (UniProt Q9NWB6),1.03 ± 0.024,1.1 ± 0.12
UniProt Q9NZ08 and related entries,1.009 ± 0.0048,0.993 ± 0.03
OXSM (UniProt Q9NWU1),0.987 ± 0.01,0.999 ± 0.015
POGK (UniProt Q9P215),0.996 ± 0.038,1.02 ± 0.017
MTPAP (UniProt Q9NVV4),0.759 ± 0.034,0.711 ± 0.03
UniProt Q9NXK8 and related entries,0.997 ± 0.013,0.984 ± 0.0029
NUDT15 (UniProt Q9NV35),0.981 ± 0.023,1 ± 0.032
UniProt Q9NRX2 and related entries,1.05 ± 0.014,1 ± 0.034
HIF1AN (UniProt Q9NWT6),1.01 ± 0.025,1.01 ± 0.018
MRPL15 (UniProt Q9P015),1.04 ± 0.044,1.01 ± 0.07
GSKIP (UniProt Q9P0R6),0.998 ± 0.055,0.9501 ± 0.003
C9orf78 (UniProt Q9NZ63),0.975 ± 0.032,1.01 ± 0.054
IMPAD1 (UniProt Q9NX62),0.98 ± 0.018,0.995 ± 0.033

Target,NP40-soluble protein abundance (concentration: 0.1mM),NP40-soluble protein abundance (concentration: 0.5mM)
NSMCE4A (UniProt Q9NXX6),0.991 ± 0.026,0.988 ± 0.062
KIF15 (UniProt Q9NS87),0.998 ± 0.013,0.997 ± 0.038
THYN1 (UniProt Q9P016),0.978 ± 0.022,1.04 ± 0.053
UniProt Q9NSB8 and related entries,0.989 ± 0.046,1.01 ± 0.045
TMEM160 (UniProt Q9NX00),0.996 ± 0.05,1.01 ± 0.058
UniProt Q9NPL8,0.957 ± 0.014,0.967 ± 0.024
UniProt Q9NY93 and related entries,1.01 ± 0.015,1.005 ± 0.0093
AGPAT5 (UniProt Q9NUQ2),1 ± 0.02,0.978 ± 0.067
FARSB (UniProt Q9NSD9),1.02 ± 0.024,0.984 ± 0.057
UBQLN4 (UniProt Q9NRR5),0.9882 ± 0.0061,1.01 ± 0.016
UniProt Q9NRW4 and related entries,0.989 ± 0.031,0.977 ± 0.011
ATXN10 (UniProt Q9UBB4),0.986 ± 0.026,1.02 ± 0.032
UniProt Q9NS23 and related entries,1.01 ± 0.032,1.01 ± 0.013
UniProt Q9NUL5 and related entries,1.06 ± 0.023,1.04 ± 0.029
UniProt Q9P287 and related entries,1.02 ± 0.026,1.004 ± 0.006
UniProt Q9NVX2 and related entries,0.992 ± 0.035,0.972 ± 0.076
CCDC88C (UniProt Q9P219),0.959 ± 0.032,0.938 ± 0.017
UniProt Q9NZ52-3|Q9NZ52-4|Q9NZ52 and related entries,0.987 ± 0.023,0.977 ± 0.024
DIP2B (UniProt Q9P265),0.994 ± 0.022,0.971 ± 0.065
PSMC3IP (UniProt Q9P2W1),0.993 ± 0.014,1.03 ± 0.061

# Single records (already shown).
# THYN1 (UniProt Q9P016) is entered as NP40-soluble protein abundance (concentration: 0.1mM): 0.978 ± 0.022; NP40-soluble protein abundance (concentration: 0.5mM): 1.04 ± 0.053
# DIP2B (UniProt Q9P265) is entered as NP40-soluble protein abundance (concentration: 0.1mM): 0.994 ± 0.022; NP40-soluble protein abundance (concentration: 0.5mM): 0.971 ± 0.065
# TMEM160 (UniProt Q9NX00) is entered as NP40-soluble protein abundance (concentration: 0.1mM): 0.996 ± 0.05; NP40-soluble protein abundance (concentration: 0.5mM): 1.01 ± 0.058

# Further entries:

Target,NP40-soluble protein abundance (concentration: 0.1mM),NP40-soluble protein abundance (concentration: 0.5mM)
UniProt Q9UBL3 and related entries,0.98 ± 0.023,0.997 ± 0.022
UniProt Q9NYP9,0.987 ± 0.025,0.961 ± 0.047
UniProt Q9NRY4,1.03 ± 0.035,0.982 ± 0.049
UniProt Q9P0U3 and related entries,0.999 ± 0.024,0.984 ± 0.044
UniProt Q9NZD8 and related entries,0.989 ± 0.026,0.978 ± 0.022
UniProt Q9P2N6-3|Q9P2N6,1.01 ± 0.013,0.998 ± 0.045
FBXO28 (UniProt Q9NVF7),1.008 ± 0.0051,1.01 ± 0.02
UniProt Q9NRP2 and related entries,0.984 ± 0.019,1 ± 0.063
KLC4 (UniProt Q9NSK0),1.01 ± 0.057,0.991 ± 0.07
UniProt Q9UBL0 and related entries,0.961 ± 0.024,0.988 ± 0.039
AVEN (UniProt Q9NQS1),0.964 ± 0.058,0.986 ± 0.089
TBC1D13 (UniProt Q9NVG8),0.999 ± 0.031,0.958 ± 0.075
ACTR10 (UniProt Q9NZ32),1.01 ± 0.011,0.993 ± 0.012
MED4 (UniProt Q9NPJ6),0.994 ± 0.015,1.01 ± 0.025
DDX21 (UniProt Q9NR30),1.08 ± 0.034,1.16 ± 0.1
UniProt Q9NX74,0.985 ± 0.02,1 ± 0.012
TFIP11 (UniProt Q9UBB9),1.027 ± 0.0025,1 ± 0.031
ARMC1 (UniProt Q9NVT9),0.992 ± 0.026,1.04 ± 0.063
UVRAG (UniProt Q9P2Y5),1.01 ± 0.028,0.982 ± 0.028
UniProt Q9NUS5,0.993 ± 0.018,0.958 ± 0.023
